From patent publication US20220280513A1, “ENHANCING THE ANTIVIRAL EFFICACY OF RNA VIRUS INHIBITION BY COMBINATION WITH MODULATORS OF PYRIMIDINE METABOLISM” (The Board of Trustees of the Leland Stanford Junior …, priority 2019, published 2022)
Some entries share one result that the patent states for a list of compounds.

System: intracellular uridine and cytidine nucleotide levels
Assay: LC-MS/MS analysis of intracellular nucleotides in A549 cells
Format: cell-based
Settings: 250 μM with 1 μM GSK983, 5 μM uridine, 6 h; compared to cells treated with GSK983 alone
Protocol: FIG. 7. LC-MS analysis of intracellular nucleotides. (A) LC-MS analysis of intracellular uridine and cytidine nucleotide levels after 6 h treatments. In all assays, the culture medium was supplemented with 5 μM uridine and 1 μM GSK983. Error bars represent ±S.D. of two replicates. (B) LC-MS detection of mono-, di- and tri-phosphates of CPU and 5-F-CPU in cells. LC-MS/MS was performed on an Agilent 1290 infinity II LC system tandem with 6370 triple quad mass spectrometer using ion pairing chromatography. LC separation was performed at 40° C. with a solvent flow rate of 0.25 mL/min on a Zorbax RRHD Extended-C18 column (2.1×150 mm, 1.8 μM). Buffer A contained 97% H2O, 3% MeOH, 5 mM tributylamine, 5.5 mM Acetic acid and 1 μM medronic acid with pH=5.0; Buffer B contains ca. 100% MeOH, 5 mM tributylamine, 5.5 mM Acetic acid and 5 μM medronic acid with pH=7.0 The initial mobile phase composition was 100% solvent A, and a constant or linear gradient was applied after sample injection with eluent B varying as follows: 0% at 2.5 min, 20% at 7.5 min, 45% at 14 min, 99% at 20 to 23 min, and 0% from 23.1 to 27.1 min. […] Samples were measured in the negative ESI mode with capillary voltage at −3.5 kV. […]
With optimized sampling and detection method in hand, pyrimidine nucleotide levels were measured in cells cultured with either 250 μM CPU, 5-F-CPU or 5′-F-CPU in combination with 1 μM GSK983 (FIG. 7A). […]

Structure (SMILES)	decrease in UMP, CMP, UDP, and CDP levels
O=c1[nH]c(=O)n([C@@H]2C=C(CO)[C@@H](O)[C@H]2O)cc1F [5-F-CPU, 1-((1R,4R,5S)-4,5-dihydroxy-3-(hydroxymethyl)cyclopent-2-en-1-yl)-5-fluoropyrimidine-2,4(1H,3H)-dione]	25-40%
O=c1ccn([C@@H]2C=C(CO)[C@@H](O)[C@H]2O)c(=O)[nH]1 [CPU, 1-((1R,4R,5S)-4,5-dihydroxy-3-(hydroxymethyl)cyclopent-2-en-1-yl)pyrimidine-2,4(1H,3H)-dione]	25-40%
